Among the data in article PMC12575849 are binding values, retold here.

Chains of the proteins cited; added tags and fusions are not shown.
UniProt O14646: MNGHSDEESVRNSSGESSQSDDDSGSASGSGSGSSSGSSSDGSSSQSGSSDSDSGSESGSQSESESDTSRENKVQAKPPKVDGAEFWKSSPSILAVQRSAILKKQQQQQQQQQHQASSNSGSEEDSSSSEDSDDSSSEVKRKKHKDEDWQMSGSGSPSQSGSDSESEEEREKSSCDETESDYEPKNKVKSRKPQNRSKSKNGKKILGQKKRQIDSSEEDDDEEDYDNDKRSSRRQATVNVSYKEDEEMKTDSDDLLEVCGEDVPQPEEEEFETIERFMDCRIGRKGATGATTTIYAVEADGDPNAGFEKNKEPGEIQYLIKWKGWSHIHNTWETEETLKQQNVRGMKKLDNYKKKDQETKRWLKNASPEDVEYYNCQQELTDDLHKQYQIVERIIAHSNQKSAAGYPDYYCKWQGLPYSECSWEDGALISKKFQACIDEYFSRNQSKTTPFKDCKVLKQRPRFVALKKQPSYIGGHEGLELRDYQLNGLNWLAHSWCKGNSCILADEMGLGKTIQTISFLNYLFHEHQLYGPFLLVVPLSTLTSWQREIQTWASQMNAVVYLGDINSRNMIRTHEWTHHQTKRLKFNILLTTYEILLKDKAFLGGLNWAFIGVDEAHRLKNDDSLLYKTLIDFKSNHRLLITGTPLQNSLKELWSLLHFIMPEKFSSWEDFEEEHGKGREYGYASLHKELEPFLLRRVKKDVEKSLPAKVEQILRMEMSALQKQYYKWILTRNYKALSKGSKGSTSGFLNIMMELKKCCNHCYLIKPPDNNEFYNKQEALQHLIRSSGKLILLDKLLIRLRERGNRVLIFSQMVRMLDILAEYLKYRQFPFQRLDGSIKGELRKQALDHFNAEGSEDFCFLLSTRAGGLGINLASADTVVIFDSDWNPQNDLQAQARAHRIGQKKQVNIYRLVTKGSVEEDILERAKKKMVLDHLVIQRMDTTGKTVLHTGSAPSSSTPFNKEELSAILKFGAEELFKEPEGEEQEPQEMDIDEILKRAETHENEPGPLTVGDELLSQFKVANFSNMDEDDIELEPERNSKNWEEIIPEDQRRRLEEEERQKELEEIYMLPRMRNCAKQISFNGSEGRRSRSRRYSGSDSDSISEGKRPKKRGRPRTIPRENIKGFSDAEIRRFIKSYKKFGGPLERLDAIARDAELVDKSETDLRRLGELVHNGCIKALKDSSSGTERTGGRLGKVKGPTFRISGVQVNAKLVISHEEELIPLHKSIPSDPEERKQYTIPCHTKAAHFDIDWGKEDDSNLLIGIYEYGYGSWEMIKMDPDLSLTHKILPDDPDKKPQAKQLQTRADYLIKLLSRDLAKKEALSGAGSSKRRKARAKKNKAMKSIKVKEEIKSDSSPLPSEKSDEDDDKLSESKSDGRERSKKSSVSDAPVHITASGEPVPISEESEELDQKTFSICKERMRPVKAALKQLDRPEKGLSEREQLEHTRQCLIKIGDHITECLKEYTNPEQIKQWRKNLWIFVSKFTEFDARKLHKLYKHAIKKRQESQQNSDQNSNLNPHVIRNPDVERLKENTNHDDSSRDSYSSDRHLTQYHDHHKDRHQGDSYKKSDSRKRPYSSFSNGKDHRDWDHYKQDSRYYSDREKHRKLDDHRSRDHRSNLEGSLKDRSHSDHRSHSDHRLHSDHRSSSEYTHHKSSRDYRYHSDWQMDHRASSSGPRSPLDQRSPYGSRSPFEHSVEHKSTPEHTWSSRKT

Results are given in words; binding and its absence hold for the method and conditions named. Binding seen in cells or lysates may run through a third protein. Here binding means that the protein was enriched with, or labelled near, the bait; the list need not be complete.

The assay has as its target CHD1^WT-Venus (chromodomain helicase DNA-binding 1, wild type) (human) (UniProt O14646). Put plainly: proximity labelling; antibody-based in situ biotinylation: fixed (4% PFA), permeabilised HeLa cells, anti-GFP primary antibody, HRP-conjugated secondary antibody, biotin-tyramide and H2O2 for 1 min (~20 nm radius), avidin pull-down, LC-MS/MS with label-free quantification; single biological replicate.

B1: SDS3 (protein, UniProt Q9H7L9 1-328)
chain: MSAAGLLAPAPAQAGAPPAPEYYPEEDEELESAEDDERSCRGRESDEDTEDASETDLAKHDEEDYVEMKEQMYQDKLASLKRQLQQLQEGTLQEYQKRMKKLDQQYKERIRNAELFLQLETEQVERNYIKEKKAAVKEFEDKKVELKENLIAELEEKKKMIENEKLTMELTGDSMEVKPIMTRKLRRRPNDPVPIPDKRRKPAPAQLNYLLTDEQIMEDLRTLNKLKSPKRPASPSSPEHLPATPAESPAQRFEARIEDGKLYYDKRWYHKSQAIYLESKDNQKLSCVISSVGANEIWVRKTSDSTKMRIYLGQLQRGLFVIRRRSAA
In the case of B1, the binding result is given as “binds”.
